We go through 21 molecules from PubChem BioAssay AID256 (DTP/NCI, 2004).

For the assay, the system named is CD2F1 mice, L1210 leukemia ip, survival T/C. Kind of assay: NCI In Vivo Anticancer Drug Screen. Data for tumor model L1210 Leukemia (intraperitoneal) in CD2F1 (CDF1) mice. The conditions noted are these: higher T/C = longer survival. The gist of the method:
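Activity against a transplanted murine tumor was judged by comparing the compound group with a vehicle group. The outcome in the treated animals was divided by that in the controls.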

[1] abbreviates: T/C endpoint: mean survival time, dose: 1.56 mg/kg/injection, schedule: Q01DX009 (ip), vehicle: saline with Tween-80.
The mark [2] stands for this setting: T/C endpoint: mean survival time, dose: 3.13 mg/kg/injection, schedule: Q01DX009 (ip), vehicle: saline with Tween-80.
Setting [3] is: T/C endpoint: mean survival time, dose: 400.0 mg/kg/injection, schedule: Q01DX009 (ip), vehicle: saline with Tween-80.
[4] abbreviates: T/C endpoint: mean survival time, dose: 150.0 mg/kg/injection, schedule: Q01DX001 (ip), vehicle: saline.
The mark [5] stands for this setting: T/C endpoint: mean survival time, dose: 300.0 mg/kg/injection, schedule: Q01DX001 (ip), vehicle: saline.
The mark [6] stands for this setting: T/C endpoint: mean survival time, dose: 400.0 mg/kg/injection, schedule: Q01DX001 (ip), vehicle: saline.
[7] abbreviates: T/C endpoint: mean survival time, dose: 400.0 mg/kg/injection, schedule: Q01DX009 (ip), vehicle: saline.
Where [8] appears, read: T/C endpoint: mean survival time, dose: 200.0 mg/kg/injection, schedule: Q04DX003 (ip), vehicle: saline with Tween-80.
The mark [9] stands for this setting: T/C endpoint: mean survival time, dose: 400.0 mg/kg/injection, schedule: Q04DX003 (ip), vehicle: saline with Tween-80.
The mark [10] stands for this setting: T/C endpoint: mean survival time, dose: 100.0 mg/kg/injection, schedule: Q01DX009 (ip), vehicle: saline.

The list shows only some results of the screen, not a fair sample: it is rich in T/C values a quarter to a half above the control, in often repeated tests (any T/C) and in doses without a T/C. Other doses and runs of a compound stand elsewhere. T/C is the treated group as % of the vehicle group. Some doses have a count of surviving animals in place of a T/C: the source holds a T/C of zero for them, seemingly a mark for toxic or unscored doses. Some survivor counts are full or nearly so, which does not show that the dose was tolerated: the source hardly ever lists a survival T/C far under the control, and the zero likely stands for such cases as well. Survivors were counted at the toxicity check, usually on the fifth day, unless a day is given; later deaths do not show. Schedules are NCI's codes, read here as Q, the interval in days (D) or hours (H), X, the number of doses. For survival time, the PubChem record calls one and a half times the control and up active, and a quarter to a half above the control has no call in these data; cut-offs in other NCI protocols can differ. Some entries were tested several times; the values are given in rising order.

With `CNCCN=c1ccc2c3c1c(O)c1c(O)ccc(=O)c1c3[nH]n2CCNCCO`, the survivor count is 6 of 6 (T/C endpoint: median survival time, dose: 12.5 mg/kg/injection, schedule: Q01DX009 (ip), vehicle: water); 3 of 6 (T/C endpoint: median survival time, dose: 25.0 mg/kg/injection, schedule: Q01DX009 (ip), vehicle: water); 0 of 6 (T/C endpoint: median survival time, dose: 50.0 mg/kg/injection, schedule: Q01DX009 (ip), vehicle: water).
In the case of `Cc1cc(/C=C/c2ccc3cc(N(C)C)ccc3[n+]2C)c(C)n1-c1ccccc1`, the T/C (T/C endpoint: mean survival time, dose: 0.39 mg/kg/injection, schedule: Q01DX009 (ip), vehicle: saline with Tween-80) is 133 % of control; the T/C (T/C endpoint: mean survival time, dose: 0.78 mg/kg/injection, schedule: Q01DX009 (ip), vehicle: saline with Tween-80) is 133 % of control; the T/C under setting [1] was 127 % of control; the T/C under setting [2] was 130 % of control. The survivor count reads like this: under setting [1], 1 of 6; under setting [2], 0 of 6; (T/C endpoint: mean survival time, dose: 100.0 mg/kg/injection, schedule: Q01DX009 (ip), vehicle: saline with Tween-80) 0 of 6; (T/C endpoint: mean survival time, dose: 200.0 mg/kg/injection, schedule: Q01DX009 (ip), vehicle: saline with Tween-80) 0 of 6; under setting [3], 0 of 6.
As to `O=C1OC(=O)C2C3C=CC(O3)C12` (centres undefined), the survivor count by setting is: (T/C endpoint: mean survival time, dose: 40.0 mg/kg/injection, schedule: Q01DX009 (ip), vehicle: saline with Tween-80) 0 of 6; (T/C endpoint: mean survival time, dose: 200.0 mg/kg/injection, schedule: Q04DX002 (ip), vehicle: saline) 0 of 3; (T/C endpoint: mean survival time, dose: 400.0 mg/kg/injection, schedule: Q04DX002 (ip), vehicle: saline) 0 of 3.
In the case of `CCCCCCCCCCCCCC[N+]1(C)CCC[N+](C)(CCCCCCCCCCCCCC)CC1` (centres undefined), the survivor count (T/C endpoint: mean survival time, dose: 400.0 mg/kg/injection, schedule: Q04DX003 (ip), vehicle: other) is 3 of 6.
In the case of `Cc1cc(O)cc(=O)o1`, under “T/C endpoint: mean survival time, dose: 100.0 mg/kg/injection, schedule: Q01DX001 (ip), vehicle: other”, the survivor count was 6 of 6.
On to `CC(CP(=O)(c1ccccc1)c1ccccc1)C(O)(C(=O)c1ccccc1)c1ccccc1` (centres undefined), for which the survivor count under setting [3] is given as 3 of 6.
For the molecule `COc1cc2c(cc1Oc1c(O)c(OC)cc3c1C(C)N(C)CC3)C(C)N(C)CC2` (centres undefined), the survivor count under setting [4] was 3 of 6 and the survivor count under setting [5] was 0 of 6.
Turning to `C1=C\C[n+]2ccccc2-c2cccc[n+]2C/1`, under “T/C endpoint: mean survival time, dose: 30.0 mg/kg/injection, schedule: Q04DX003 (ip), vehicle: saline”, the survivor count is 2 of 6.
Consider `CCC[CH2][Sn]1([CH2]CCC)[O]C(=O)C2CC=CCC2C(=O)[O]1` (centres undefined), for which the survivor count under setting [6] is on record as 1 of 4.
Regarding `Cc1ccc(C2(SCC(N)C(=O)O)c3ccccc3-c3ccccc32)cc1` (centres undefined), under setting [7], the survivor count is 0 of 6.
With `CN(C)/C=C(\C#N)C=O`, the survivor count (T/C endpoint: mean survival time, dose: 150.0 mg/kg/injection, schedule: Q04DX003 (ip), vehicle: saline with Tween-80) was 3 of 6 and the survivor count (T/C endpoint: mean survival time, dose: 300.0 mg/kg/injection, schedule: Q04DX003 (ip), vehicle: saline with Tween-80) is listed as 0 of 6.
Regarding `COC1=CC2c3ccccc3C1C1C(OC)=CC2c2ccccc21`, the survivor count is, setting by setting: under setting [8], 6 of 6; under setting [9], 6 of 6.
On to `N#CCCCN=[N+]=[N-]`, for which, under setting [5], the survivor count was 0 of 6.
As to `COc1cccc2c1C(=O)c1c(O)c3c(c(O)c1C2=O)C[C@@](O)(/C(C)=N/NC(=O)c1cccc([N+](=O)[O-])c1)C[C@@H]3OC1CC(N)C(O)C(C)O1` (some centres undefined), for the setting “T/C endpoint: mean survival time, dose: 8.0 mg/kg/injection, schedule: Q01DX009 (ip), vehicle: water”, the T/C is 126 % of control. For the same molecule, the survivor count (T/C endpoint: mean survival time, dose: 32.0 mg/kg/injection, schedule: Q01DX009 (ip), vehicle: water) is recorded as 6 of 6.
On to `CO[C@@]12[C@@H]3N[C@@H]3CN1C1=C(C(=O)C(NCCc3ccc(O)cc3)=C(C)C1=O)[C@@H]2COC(N)=O`, for which the T/C (T/C endpoint: mean survival time, dose: 12.0 mg/kg/injection, schedule: Q01DX001 (ip), vehicle: water) was 126 % of control; the T/C (T/C endpoint: mean survival time, dose: 24.0 mg/kg/injection, schedule: Q01DX001 (ip), vehicle: water) was 125 and 132 % of control.
As to `O=C(C[n+]1ccc2ccccc2c1)c1ccc(Br)cc1`, the survivor count runs as follows: under setting [10], 1 of 6; (T/C endpoint: mean survival time, dose: 200.0 mg/kg/injection, schedule: Q04DX003 (ip), vehicle: saline) 2 of 6; (T/C endpoint: mean survival time, dose: 400.0 mg/kg/injection, schedule: Q04DX003 (ip), vehicle: saline) 2 of 6.
Consider `C[N+]1(C)CCc2cc(O)c(O)cc2C1Cc1ccc(O)c(O)c1` (centres undefined), for which the survivor count is 0 of 6 under setting [4] and 0 of 6 under setting [5].
Consider `CN(C)c1nc2c(N)ncnc2n1C1OC(CO)C(O)C1O` (centres undefined), for which the survivor count is, setting by setting: (T/C endpoint: mean survival time, dose: 100.0 mg/kg/injection, schedule: Q04DX002 (ip), vehicle: saline with Tween-80) 0 of 3; (T/C endpoint: mean survival time, dose: 200.0 mg/kg/injection, schedule: Q04DX002 (ip), vehicle: saline with Tween-80) 0 of 3; under setting [6], 2 of 6; (T/C endpoint: mean survival time, dose: 400.0 mg/kg/injection, schedule: Q04DX002 (ip), vehicle: saline with Tween-80) 0 of 3.
For the molecule `Cc1cc(C)c(C(Br)C(Br)c2c(C)cc(C)cc2C)c(C)c1` (centres undefined), the survivor count (T/C endpoint: mean survival time, dose: 100.0 mg/kg/injection, schedule: Q04DX003 (ip), vehicle: saline with Tween-80) was 6 of 6; the survivor count under setting [8] is given as 6 of 6; the survivor count under setting [9] is 5 of 6.
Take `CC1CC(O)C([N+](=O)[O-])C(O)C1` (centres undefined): the survivor count was 0 of 6 under setting [10]; 0 of 6 (T/C endpoint: mean survival time, dose: 200.0 mg/kg/injection, schedule: Q01DX009 (ip), vehicle: saline); 0 of 6 under setting [7].
`O=C(O)Cc1ccccc1C(=O)O.[NH-]C1CCCCC1[NH-].[Pt+2]`: the T/C is, setting by setting: (T/C endpoint: median survival time, dose: 100.0 mg/kg/injection, schedule: Q04DX003 (ip), vehicle: saline) 125 and 130 % of control; (T/C endpoint: median survival time, dose: 200.0 mg/kg/injection, schedule: Q04DX003 (ip), vehicle: saline) 128 and 134 % of control.
